Experimental data: PMC11918873
No constants are given. Whether binding was seen depends on the method and setting. Binding seen in cells or lysates may run through a third protein. Some entries that bind do so weakly or less than the wild type. Tags and fused reporters may be left off the sequences shown.

By UniProt entry, the sequences of proteins in these tests, tags left out. Where a name states a change or a piece, a line headed by the entry shows the natural chain unless it says otherwise. Chains listed by the source or under a name are the forms on record and can include a tag or linker.
NF p.2069myc (wild-type neurofibromin, N-terminal 2069 amino acids, myc-tagged) (P21359-2, form named): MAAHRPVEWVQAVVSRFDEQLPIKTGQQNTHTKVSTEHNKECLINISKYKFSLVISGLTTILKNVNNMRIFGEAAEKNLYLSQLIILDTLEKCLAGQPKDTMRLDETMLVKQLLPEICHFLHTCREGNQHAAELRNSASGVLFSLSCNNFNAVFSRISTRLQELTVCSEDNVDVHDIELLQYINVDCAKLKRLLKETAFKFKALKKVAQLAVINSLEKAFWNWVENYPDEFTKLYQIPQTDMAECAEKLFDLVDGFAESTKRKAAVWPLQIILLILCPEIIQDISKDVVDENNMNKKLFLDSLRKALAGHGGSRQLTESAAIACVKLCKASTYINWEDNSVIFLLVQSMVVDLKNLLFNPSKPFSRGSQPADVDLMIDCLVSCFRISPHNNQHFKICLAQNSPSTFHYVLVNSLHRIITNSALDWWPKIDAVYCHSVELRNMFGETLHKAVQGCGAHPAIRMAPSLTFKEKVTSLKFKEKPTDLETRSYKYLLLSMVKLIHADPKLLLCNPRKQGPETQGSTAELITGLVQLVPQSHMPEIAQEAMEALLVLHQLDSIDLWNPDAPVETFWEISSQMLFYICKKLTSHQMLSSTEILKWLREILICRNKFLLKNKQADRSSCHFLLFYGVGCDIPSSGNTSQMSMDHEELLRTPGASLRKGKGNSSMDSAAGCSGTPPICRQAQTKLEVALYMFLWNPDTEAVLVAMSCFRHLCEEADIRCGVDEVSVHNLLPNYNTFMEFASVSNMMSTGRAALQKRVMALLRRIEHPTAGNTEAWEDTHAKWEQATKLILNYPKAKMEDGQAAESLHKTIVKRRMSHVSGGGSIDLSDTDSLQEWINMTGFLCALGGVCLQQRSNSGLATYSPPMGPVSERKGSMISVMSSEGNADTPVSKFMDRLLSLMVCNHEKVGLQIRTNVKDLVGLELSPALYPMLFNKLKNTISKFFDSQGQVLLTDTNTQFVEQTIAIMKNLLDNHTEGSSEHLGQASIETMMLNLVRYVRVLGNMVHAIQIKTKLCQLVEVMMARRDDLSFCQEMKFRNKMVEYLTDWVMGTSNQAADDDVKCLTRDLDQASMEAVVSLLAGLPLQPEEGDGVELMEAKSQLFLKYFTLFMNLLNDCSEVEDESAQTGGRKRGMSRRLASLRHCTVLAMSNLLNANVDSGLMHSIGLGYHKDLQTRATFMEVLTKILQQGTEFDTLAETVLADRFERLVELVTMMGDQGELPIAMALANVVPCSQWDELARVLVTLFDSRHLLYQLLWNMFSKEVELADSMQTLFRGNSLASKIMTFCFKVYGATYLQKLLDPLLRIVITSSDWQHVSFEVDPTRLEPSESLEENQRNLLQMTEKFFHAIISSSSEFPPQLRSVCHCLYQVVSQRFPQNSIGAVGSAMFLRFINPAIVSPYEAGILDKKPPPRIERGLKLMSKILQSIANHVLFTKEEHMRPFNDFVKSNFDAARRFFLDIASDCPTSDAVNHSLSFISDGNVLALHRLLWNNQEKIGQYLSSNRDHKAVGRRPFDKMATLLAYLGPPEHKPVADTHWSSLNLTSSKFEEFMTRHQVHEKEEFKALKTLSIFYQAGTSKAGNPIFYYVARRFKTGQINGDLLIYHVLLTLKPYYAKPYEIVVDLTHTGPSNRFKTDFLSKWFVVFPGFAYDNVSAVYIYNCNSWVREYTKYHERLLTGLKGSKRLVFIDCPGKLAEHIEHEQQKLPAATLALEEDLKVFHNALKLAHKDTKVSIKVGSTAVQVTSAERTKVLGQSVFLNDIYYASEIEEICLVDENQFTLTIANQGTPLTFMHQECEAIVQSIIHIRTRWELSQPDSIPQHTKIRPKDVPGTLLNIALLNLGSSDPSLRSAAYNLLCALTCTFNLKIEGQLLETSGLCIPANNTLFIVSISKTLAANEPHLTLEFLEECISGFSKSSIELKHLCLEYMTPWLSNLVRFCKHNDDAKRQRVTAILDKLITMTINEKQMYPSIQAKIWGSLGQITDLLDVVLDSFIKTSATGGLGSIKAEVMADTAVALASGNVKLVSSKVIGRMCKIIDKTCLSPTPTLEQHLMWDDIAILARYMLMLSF

Target: T1, FLAG-SPRED1 (wild-type Sprouty-related protein with an EVH domain 1) (human) (UniProt Q7Z699)
T1 sequence: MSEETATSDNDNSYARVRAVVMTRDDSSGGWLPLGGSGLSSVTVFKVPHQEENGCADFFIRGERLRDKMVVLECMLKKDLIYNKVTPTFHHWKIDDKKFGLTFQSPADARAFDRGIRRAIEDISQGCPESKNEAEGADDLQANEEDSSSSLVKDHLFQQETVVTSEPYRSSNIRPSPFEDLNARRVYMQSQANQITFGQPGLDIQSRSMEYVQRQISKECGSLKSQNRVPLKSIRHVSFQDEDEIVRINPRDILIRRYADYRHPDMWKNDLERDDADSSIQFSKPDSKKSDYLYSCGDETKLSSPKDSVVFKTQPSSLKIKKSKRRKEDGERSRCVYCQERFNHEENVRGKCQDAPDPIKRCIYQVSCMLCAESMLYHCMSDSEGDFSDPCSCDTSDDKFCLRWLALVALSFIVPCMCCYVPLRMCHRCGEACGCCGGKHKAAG
Assay: co-IP; FLAG-SPRED1 (WT or variant) and myc-tagged NF (WT or variant) coexpressed in HEK 293 T cells; complexes immunoprecipitated with anti-FLAG affinity beads; NF signal in the IP fraction by immunoblotting, relative to WT (= 1.0), at least 3 independent experiments

binding: binds
Substance: NF p.2069myc (wild-type neurofibromin, N-terminal 2069 amino acids, myc-tagged) (from UniProt P21359-2 1-2069) (domain or fragment)
